For one substance, binding results are on record in article PMC10733312.

Protein sequences, listed by entry. Tags and fused reporters are not part of them.
UniProt P19474: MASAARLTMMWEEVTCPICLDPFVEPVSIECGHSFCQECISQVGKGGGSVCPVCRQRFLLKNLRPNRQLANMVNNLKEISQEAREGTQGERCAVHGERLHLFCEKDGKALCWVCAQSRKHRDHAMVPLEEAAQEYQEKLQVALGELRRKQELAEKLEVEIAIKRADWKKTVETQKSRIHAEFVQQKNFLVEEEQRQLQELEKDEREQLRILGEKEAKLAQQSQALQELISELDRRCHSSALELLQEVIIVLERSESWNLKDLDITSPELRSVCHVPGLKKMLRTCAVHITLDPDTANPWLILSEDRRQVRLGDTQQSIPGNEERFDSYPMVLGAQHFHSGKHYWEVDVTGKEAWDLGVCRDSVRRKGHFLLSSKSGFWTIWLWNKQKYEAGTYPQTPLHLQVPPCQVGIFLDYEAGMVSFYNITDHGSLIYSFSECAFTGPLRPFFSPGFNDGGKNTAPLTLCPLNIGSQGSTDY

No constants are given. Whether binding was seen depends on the method and setting. Binding seen in cells or lysates may run through a third protein. Some binding calls cover weakened binding; strength is not graded here. Sequences can lack the tags named with a protein.

The target of the test is T1, Flag-Sohlh2 (UniProt Q9NX45).
T1 sequence: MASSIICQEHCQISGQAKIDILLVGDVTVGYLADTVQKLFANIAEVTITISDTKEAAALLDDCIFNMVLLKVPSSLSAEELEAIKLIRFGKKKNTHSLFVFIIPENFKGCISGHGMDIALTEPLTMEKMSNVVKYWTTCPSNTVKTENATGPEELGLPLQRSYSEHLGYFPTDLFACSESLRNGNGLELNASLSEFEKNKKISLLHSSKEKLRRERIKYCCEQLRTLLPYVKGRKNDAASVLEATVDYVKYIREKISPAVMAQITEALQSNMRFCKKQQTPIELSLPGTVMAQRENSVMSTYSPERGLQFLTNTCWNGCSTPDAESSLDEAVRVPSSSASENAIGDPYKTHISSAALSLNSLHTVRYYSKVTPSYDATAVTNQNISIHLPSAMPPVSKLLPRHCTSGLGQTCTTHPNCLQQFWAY
The test is described as follows: co-IP; THP-1 or HEK293T cells lysed 24 h after transfection; supernatants incubated with anti-Flag antibody (normal mouse IgG as negative control) for 2 h, then protein A/G beads overnight at 4 °C; washed 3 times with lysis buffer.

On to “E3 ubiquitin ligase TRIM21 (from UniProt P19474 1-475) (enzyme)”, for which the binding result is “binds”.
